Data: the supplement of paper PMC6411743
± gives the standard deviation of the averaged measurements. This is a selection; strong and weak results do not stand in their true shares.

Biological target: T1, UniProt Q8N0U8 and related entries
T1 sequence (whole entry): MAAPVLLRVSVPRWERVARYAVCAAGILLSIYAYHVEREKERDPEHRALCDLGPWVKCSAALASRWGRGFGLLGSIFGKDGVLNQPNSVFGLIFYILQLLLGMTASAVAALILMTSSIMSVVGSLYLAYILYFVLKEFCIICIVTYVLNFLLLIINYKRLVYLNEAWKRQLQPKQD
Assay: NP40-soluble protein abundance relative to vehicle (solubility fold change) (ratio); higher = more soluble protein in presence of ATP
Procedure, shortened: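 Values are fold changes against the detergent-processed vehicle, based on vsn-normalised intensities. Jurkat crude lysate was treated at eight concentrations from 0.1 to 10 mM (10 min at room temperature, then 3 min at 37 °C), solubilised with 0.8% NP40 and benzonase, ultracentrifuged and analysed by TMT-labelled LC-MS/MS over three independent experiments.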

SMILES: Nc1ncnc2c1ncn2[C@@H]1O[C@H](COP(=O)(O)OP(=O)(O)OP(=O)(O)O)[C@@H](O)[C@H]1O [adenosine triphosphate]
- NP40-soluble protein abundance (concentration: 1mM): 0.873 ± 0.077
- NP40-soluble protein abundance (concentration: 2mM): 0.969 ± 0.066
- NP40-soluble protein abundance (concentration: 4mM): 1.04 ± 0.1
- NP40-soluble protein abundance (concentration: 6mM): 0.837 ± 0.1
- NP40-soluble protein abundance (concentration: 8mM): 0.925 ± 0.027
- NP40-soluble protein abundance (concentration: 10mM): 0.976 ± 0.029
